Converted amounts (≈) assume the structure as drawn. At least one compound was matched to its structure with a doubt left.
Key:
S. epidermidis = conditions: cited from earlier work
[1] = In vitro release of steroids entrapped in hydrogel compared to free drug in PBS; format: physicochemical; conditions: 9% 4a20KSG hydrogel, FIG. 20
Procedure: A 9% 4a20KSG hydrogel was prepared incorporating three different steroids (flunisolide, budesonide, and triamcinolone acetonide).

| Structure (SMILES) | MIC90 (S. epidermidis) [µg/mL] | Release profile in hydrogel compared to free drug in PBS [1] |
| --- | --- | --- |
| COc1c(N2C[C@@H]3CCCN[C@@H]3C2)c(F)cc2c(=O)c(C(=O)O)cn(C3CC3)c12 [Moxifloxacin] | 0.13 (≈ 0.324 µM) | – |
| CCCC1O[C@@H]2C[C@H]3[C@@H]4CCC5=CC(=O)C=C[C@]5(C)[C@H]4[C@@H](O)C[C@]3(C)[C@]2(C(=O)CO)O1 (stereo partly drawn) [budesonide] | – | slower more sustained drug release profile |
| CC1(C)O[C@@H]2C[C@H]3[C@@H]4CCC5=CC(=O)C=C[C@]5(C)[C@@]4(F)[C@@H](O)C[C@]3(C)[C@]2(C(=O)CO)O1 [triamcinolone acetonide] | – | slower more sustained drug release profile |

— US8563027B2, “Drug delivery through hydrogel plugs” (Incept, LLC, priority 2009, dated 2013)
